Our source for the binding values is article PMC7953756.

Chains of the proteins cited; added tags and fusions are not shown. Residues count along the entry.
UniProt P10721, residues 26-976: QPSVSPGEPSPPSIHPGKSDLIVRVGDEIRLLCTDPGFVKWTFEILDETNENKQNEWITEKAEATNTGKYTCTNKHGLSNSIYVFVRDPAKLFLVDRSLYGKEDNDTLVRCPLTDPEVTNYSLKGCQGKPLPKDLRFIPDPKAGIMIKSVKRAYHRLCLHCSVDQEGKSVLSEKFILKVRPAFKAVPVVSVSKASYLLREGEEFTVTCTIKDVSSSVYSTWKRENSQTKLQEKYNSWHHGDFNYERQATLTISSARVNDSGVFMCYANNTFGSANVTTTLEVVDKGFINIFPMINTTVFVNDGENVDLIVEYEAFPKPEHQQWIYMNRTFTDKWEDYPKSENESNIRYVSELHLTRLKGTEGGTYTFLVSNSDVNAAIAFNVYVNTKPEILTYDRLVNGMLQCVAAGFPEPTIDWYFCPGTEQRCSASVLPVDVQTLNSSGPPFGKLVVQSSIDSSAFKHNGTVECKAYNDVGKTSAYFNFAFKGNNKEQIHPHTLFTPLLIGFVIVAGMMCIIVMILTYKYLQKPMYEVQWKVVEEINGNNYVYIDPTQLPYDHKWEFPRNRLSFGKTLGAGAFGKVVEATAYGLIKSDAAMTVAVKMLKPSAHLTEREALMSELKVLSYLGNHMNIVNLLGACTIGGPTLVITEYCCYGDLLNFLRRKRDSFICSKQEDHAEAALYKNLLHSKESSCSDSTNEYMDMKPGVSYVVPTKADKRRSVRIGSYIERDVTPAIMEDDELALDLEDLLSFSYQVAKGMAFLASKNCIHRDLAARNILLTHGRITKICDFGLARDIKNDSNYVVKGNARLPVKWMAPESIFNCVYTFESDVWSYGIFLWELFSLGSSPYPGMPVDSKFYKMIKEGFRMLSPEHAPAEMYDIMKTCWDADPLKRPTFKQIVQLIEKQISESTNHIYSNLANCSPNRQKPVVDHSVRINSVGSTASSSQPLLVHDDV

Experiment [1] concerns the target T1, suppressor of cytokine signaling 6 (SOCS6) (human (endogenous in Eca109)) (UniProt O14544).
T1 sequence: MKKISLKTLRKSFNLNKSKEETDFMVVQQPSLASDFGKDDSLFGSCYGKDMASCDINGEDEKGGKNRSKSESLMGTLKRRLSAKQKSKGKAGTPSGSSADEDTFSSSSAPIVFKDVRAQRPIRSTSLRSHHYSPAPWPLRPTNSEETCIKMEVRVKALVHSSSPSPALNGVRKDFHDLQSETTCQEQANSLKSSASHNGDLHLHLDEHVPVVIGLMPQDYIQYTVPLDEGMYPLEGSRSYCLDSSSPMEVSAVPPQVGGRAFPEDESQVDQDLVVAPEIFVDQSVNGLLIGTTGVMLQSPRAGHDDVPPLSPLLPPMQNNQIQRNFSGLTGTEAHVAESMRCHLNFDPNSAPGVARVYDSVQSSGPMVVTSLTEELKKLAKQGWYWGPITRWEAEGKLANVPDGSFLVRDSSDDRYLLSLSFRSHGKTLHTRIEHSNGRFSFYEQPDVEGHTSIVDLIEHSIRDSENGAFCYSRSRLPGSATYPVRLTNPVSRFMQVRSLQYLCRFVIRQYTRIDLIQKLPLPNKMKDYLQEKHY
In words: co-IP; reverse direction: IP of SOCS6 from Eca109 cells, Western blot for c-Kit; details of this IP not told. (In general: In western blotting, separated proteins are transferred to a membrane and probed.)

The target of experiment [2] is stem cell factor receptor c-Kit (human (endogenous in Eca109)) (UniProt P10721). As to the kind of experiment: co-IP; Eca109 cells lysed in ice-cold RIPA buffer, pre-cleared with normal rabbit IgG; IP with rabbit monoclonal anti-c-Kit antibody and Protein A/G PLUS-Agarose at 4 C, 4 washes with RIPA buffer; Western blot for SOCS6.

No constants are given. Whether binding was seen depends on the method and setting. Binding seen in cells or lysates may run through a third protein. Some entries that bind do so weakly or less than the wild type.

As to “stem cell factor receptor c-Kit (from UniProt P10721 26-976)”, the binding entry in experiment [1] was “binds”.

B1: suppressor of cytokine signaling 6 (SOCS6) (protein, UniProt O14544 1-535)
chain: T1 sequence
Turning to B1, the binding entry in experiment [2] was “binds”.
